Library screen at single concentrations

Mtb cholesterol medium: 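Whole-cell growth test on Mycobacterium tuberculosis, read after 4 days in a medium based on cholesterol and the lipid DPPC; the read-out is not stated. Compounds at 50 µM. Higher reads as more growth inhibition (inferred: compounds with an IC50 in retests scored well above the rest). Of about 69,000 compounds tested this way, about 370 (0.54%) reached 50% or more in at least one test.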
Mtb glucose medium: 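Whole-cell growth test on Mycobacterium tuberculosis, read after 3 days in glucose-containing 7H9 medium; the read-out is not stated. Concentration: 50 µM. Direction is inferred from retests: higher values go with more growth inhibition. About 69,000 compounds were tested under these conditions; 1.1% (about 760) showed 50% or more at least once.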

Results are given as percent effect. How 0% and 100% were set is not recorded. Most values in the screen are low, and negative values occur. Compounds were drawn at random from those tested, without regard to their results. Two or more numbers in one place are separate tests of the same structure; such repeats can differ widely.

- CCCN1CCN(C(=O)c2cnn(-c3ccccc3F)c2)CC1 | Mtb cholesterol medium: 3.463% & -0.4303%; Mtb glucose medium: 17.22%
- Nc1ccnc(N2CCCC(CCc3ccccc3)(C(=O)O)C2)n1 (configuration not stated) | Mtb cholesterol medium: -17.67%; Mtb glucose medium: -6.539%
- CCc1n[nH]c(C2CN(C(=O)c3ccc(Cl)cn3)CCO2)n1 (configuration not stated) | Mtb cholesterol medium: -12.4%; Mtb glucose medium: -5.1%
- COc1ccccc1C(O)CNC(=O)Nc1ccccn1 (configuration not stated) | Mtb cholesterol medium: -4.393%; Mtb glucose medium: -4.672%
- O=C(O)C(F)(F)F.O=C(O)C(F)(F)F.O=C(c1cccnc1)N1CCn2nnc(COc3ccccn3)c2C1 | Mtb cholesterol medium: -33.73%; Mtb glucose medium: 3.063%
- CCOC(=O)C1CCN(C(=O)Cn2ccc3cc(Br)ccc32)CC1 | Mtb cholesterol medium: -13.18%; Mtb glucose medium: 7.148%
- [H][C@]12CCN(C(=O)NCc3ccccc3)C[C@@]1([H])OCCN(C(C)=O)C2 | Mtb cholesterol medium: -14.52%; Mtb glucose medium: -67.73%
- CNC(=O)CNC(=O)CC1C(=O)NCCN1Cc1ccccc1C (configuration not stated) | Mtb cholesterol medium: -11.85% & -15.37%; Mtb glucose medium: -11.27%
- [H][C@@]12CS(=O)(=O)C[C@]1([H])N(C(=O)Cc1ccc(O)c(Cl)c1)CCN2CC1CC1 | Mtb cholesterol medium: -13.67%; Mtb glucose medium: -22.2% & -14.72%
- Cc1ccnc(NC(=O)c2cncc(C3CCNCC3)n2)c1 | Mtb cholesterol medium: 10.88%; Mtb glucose medium: 20.24%
- O=C1NCCCCC1NC(=O)N1CCc2ccccc21 (configuration not stated) | Mtb cholesterol medium: 15.37%; Mtb glucose medium: 22.32% & -2.28%
- Cc1ncccc1O[C@H]1CCN(C(=O)Cc2cccs2)CC[C@@H]1O | Mtb cholesterol medium: 2.765%; Mtb glucose medium: 1.776%
- COc1ccc(C(=O)N2CC(c3ccncc3)C2)c(OC)c1OC | Mtb cholesterol medium: -15.83%; Mtb glucose medium: -3.319%
- COc1ccc(NC(=O)CN2CCS(=O)(=O)CC2)cn1 | Mtb cholesterol medium: 3.534%; Mtb glucose medium: 10.74%
- CCc1nc(C)c(C(=O)NCCNC(=O)Cc2cccc(F)c2)s1 | Mtb cholesterol medium: -2.861%; Mtb glucose medium: -42.36% & -4.731%
- CCOCC1CCN(C(=O)Nc2ccc3c(c2)CCCO3)C1 (configuration not stated) | Mtb cholesterol medium: -33.7%; Mtb glucose medium: -26.51%
- Cc1ccc(Cn2cc(C)c(N)n2)cc1 | Mtb cholesterol medium: 14.87%; Mtb glucose medium: -12.55%
- Cc1nc2c(N(CCC(N)=O)CCc3ccccc3)ncnc2o1 | Mtb cholesterol medium: -7.963%; Mtb glucose medium: -93.89%
- O=C(OCC1CCCN(C(=O)c2ccccc2)C1)c1cscn1 (configuration not stated) | Mtb cholesterol medium: -17.42%; Mtb glucose medium: -21.49%
- COc1ccc(CCCC(=O)N2C[C@H](C3CC3)[C@@H](N(C)C)C2)cc1 | Mtb cholesterol medium: 6.221%; Mtb glucose medium: -6.742%
- CCC1CN(C)c2ccccc2CN1C(=O)c1c[nH]c(=O)cc1C (configuration not stated) | Mtb cholesterol medium: 2.771%; Mtb glucose medium: 18.5%
- Cc1ccc(CN2Cc3nccn3CC(CN(C)C)C2)s1.O=C(O)C(F)(F)F.O=C(O)C(F)(F)F (configuration not stated) | Mtb cholesterol medium: 3.792%; Mtb glucose medium: -5.422%
- CCc1ocnc1C(=O)N1CCC2(CCCN(CC(C)(C)C)C2=O)C1 (configuration not stated) | Mtb cholesterol medium: 6.922%; Mtb glucose medium: 22.34%
- O=C(c1cnc(C2CC2)nc1O)N1CCN(Cc2ccccc2F)CC1 | Mtb cholesterol medium: -14.64%; Mtb glucose medium: -40.73%
- O=S(=O)(c1ccccc1)N1CCCC1c1cc[nH]n1 (configuration not stated) | Mtb cholesterol medium: -7.083%; Mtb glucose medium: 8.189%
- CCC[C@H]1CN(Cc2ccc(N(C)C)nc2)C[C@@H]1NC(=O)CSC | Mtb cholesterol medium: -1.588% & 0.666%; Mtb glucose medium: 1.116% & -1.981%

For reference, 3 entries once more:

Compound	Mtb cholesterol medium	Mtb glucose medium
Cc1ncccc1O[C@H]1CCN(C(=O)Cc2cccs2)CC[C@@H]1O	2.765	1.776
O=C(OCC1CCCN(C(=O)c2ccccc2)C1)c1cscn1 (configuration not stated)	-17.42	-21.49
Cc1nc2c(N(CCC(N)=O)CCc3ccccc3)ncnc2o1	-7.963	-93.89

Measurements from “University of Dundee, Small-Polar-MMV Screening Library” (2021), ChEMBL document CHEMBL3988442.